Experimental data: paper PMC11445230
These are yes or no findings as the source states them, for the method shown. In cells and extracts the contact can be indirect. Here binding means that the protein was enriched with, or labelled near, the bait; the list need not be complete.

By UniProt entry, the sequences of proteins in these tests, tags left out. Residues count along the entry.
UniProt Q9Y653, residues 26-693: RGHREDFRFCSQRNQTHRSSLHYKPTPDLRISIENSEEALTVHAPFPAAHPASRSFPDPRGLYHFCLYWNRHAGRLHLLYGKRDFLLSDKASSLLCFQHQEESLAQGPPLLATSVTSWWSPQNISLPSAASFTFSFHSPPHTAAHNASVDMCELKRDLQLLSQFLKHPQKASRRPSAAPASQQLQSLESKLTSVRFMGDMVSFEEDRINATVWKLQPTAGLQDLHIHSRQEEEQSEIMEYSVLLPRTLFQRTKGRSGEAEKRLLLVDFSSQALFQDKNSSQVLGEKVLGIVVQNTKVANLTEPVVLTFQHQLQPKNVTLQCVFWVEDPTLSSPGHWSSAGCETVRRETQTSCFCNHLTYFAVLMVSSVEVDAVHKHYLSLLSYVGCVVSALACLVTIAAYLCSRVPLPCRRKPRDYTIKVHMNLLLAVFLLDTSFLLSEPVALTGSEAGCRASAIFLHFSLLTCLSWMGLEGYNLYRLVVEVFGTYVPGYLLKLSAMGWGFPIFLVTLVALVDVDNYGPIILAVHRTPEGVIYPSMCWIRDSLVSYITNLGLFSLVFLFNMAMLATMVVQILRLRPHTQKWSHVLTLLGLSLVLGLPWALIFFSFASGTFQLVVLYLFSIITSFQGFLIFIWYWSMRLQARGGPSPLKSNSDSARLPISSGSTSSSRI

Biological target: G protein-coupled receptor 56 (GPR56), overexpressed in cells used for immunoprecipitation and mass spectrometry (UniProt Q9Y653)
Experiment: affinity purification with mass spectrometry; immunoprecipitation from GPR56 overexpressing cells, silver staining and mass spectrum

B1: TGF-β receptor 1 (TGFBR1), found in the GPR56 immunoprecipitate by mass spectrometry (receptor, UniProt P36897 34-503)
chain: LQCFCHLCTKDNFTCVTDGLCFVSVTETTDKVIHNSMCIAEIDLIPRDRPFVCAPSSKTGSVTTTYCCNQDHCNKIELPTTVKSSPGLGPVELAAVIAGPVCFVCISLMLMVYICHNRTVIHHRVPNEEDPSLDRPFISEGTTLKDLIYDMTTSGSGSGLPLLVQRTIARTIVLQESIGKGRFGEVWRGKWRGEEVAVKIFSSREERSWFREAEIYQTVMLRHENILGFIAADNKDNGTWTQLWLVSDYHEHGSLFDYLNRYTVTVEGMIKLALSTASGLAHLHMEIVGTQGKPAIAHRDLKSKNILVKKNGTCCIADLGLAVRHDSATDTIDIAPNHRVGTKRYMAPEVLDDSINMKHFESFKRADIYAMGLVFWEIARRCSIGGIHEDYQLPYYDLVPSDPSVEEMRKVVCEQKLRPNIPNRWQSCEALRVMAKIMRECWYANGAARLTALRIKKTLSQLSQQEGIKM
  binding: binds
